# Primary screen of a compound library

Chains of the proteins cited; added tags and fusions are not shown.
UniProt P9WPC5, whole entry: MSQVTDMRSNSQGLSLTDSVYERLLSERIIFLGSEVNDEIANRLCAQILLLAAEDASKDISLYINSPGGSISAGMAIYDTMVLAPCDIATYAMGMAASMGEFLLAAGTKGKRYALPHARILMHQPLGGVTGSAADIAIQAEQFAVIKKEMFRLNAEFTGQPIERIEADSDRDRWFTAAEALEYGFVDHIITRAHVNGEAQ
UniProt P9WPC3, whole entry partner: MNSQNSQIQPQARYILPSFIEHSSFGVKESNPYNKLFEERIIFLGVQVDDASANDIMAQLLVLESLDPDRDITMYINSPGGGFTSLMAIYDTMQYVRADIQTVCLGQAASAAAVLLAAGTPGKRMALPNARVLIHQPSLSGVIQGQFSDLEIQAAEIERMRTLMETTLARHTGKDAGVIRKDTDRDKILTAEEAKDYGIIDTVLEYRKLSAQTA

Data taken from ChEMBL document CHEMBL3988442, “University of Dundee, Small-Polar-MMV Screening Library” (2021).

A: 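Assay of Toxoplasma gondii numbers, read through their beta-galactosidase reporter with a colour substrate. Compounds at 10 µM. The record gives no direction; the compounds picked for IC50 retests had high values, so higher reads as fewer parasites. Size under these conditions: about 67,000 compounds, about 260 of them at 50% or above in at least one test.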
B: 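Protease assay of ClpP1P2, read by the AMC dye that it sets free. Target: ClpP1P2, Mycobacterium tuberculosis (UniProt P9WPC5 and UniProt P9WPC3). Tested at 50 µM. Higher reads as stronger inhibition, judged from the few compounds that gave an IC50. Most other retested compounds had strongly negative values. Of about 69,000 compounds tested this way, about 10 (0.015%) reached 50% or more in at least one test.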
C: 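Cell assay of Leishmania donovani living inside macrophages; the read-out is not stated. Compounds at 30 µM. Direction is inferred from retests: higher values go with stronger inhibition. About 69,000 compounds were tested under these conditions; 1.5% (about 1,000) showed 50% or more at least once.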
D: 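Whole-parasite assay of Trypanosoma brucei over 72 hours; the read-out is not stated. Compounds at 30 µM. Higher reads as stronger inhibition (inferred: compounds with an IC50 in retests scored well above the rest). Values scatter widely below zero; nearly all retest evidence comes from the higher of the two concentrations used. Size under these conditions: about 64,000 compounds, about 940 of them at 50% or above in at least one test.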

The filed quantity is “Percent Effect” (%).
The controls that fix the scale are not given in the record; negative values are as filed.
Compounds were drawn at random from those tested, without regard to their results.
Two or more numbers in one place are separate tests of the same structure; such repeats can differ widely.

Result for O=S(=O)(C1CC1)N1CC[C@@H]2[C@@H]1CCN2Cc1cccs1 was B: -1.895%.
Result for COc1cc(N2CCC3(C2)CN(c2cccnc2)C(=O)CN3C)ncn1 (stereo unspecified) was A: 5.548%; B: -1.838%; C: 19.94%; D: -48.58%.
Result for CN(CCO)C1CCN(c2ncc3c(n2)CCN3c2ccccc2)CC1 was A: -6.698%; B: -2.452%; C: -15.59%; D: 0.3504%.
Result for Cn1cnc2c1C(COCC1CCOCC1)CN(Cc1ccccn1)C2.O=C(O)C(F)(F)F.O=C(O)C(F)(F)F.O=C(O)C(F)(F)F (stereo unspecified) was A: 18.41%; C: 17.25%; D: -16.99%.
Result for O=C(CN1C(=O)CCNC1=O)N1CCC(c2ccc(F)cc2)C1 (stereo unspecified) was A: 23.5%; B: -9.854%; C: 21.21%; D: -33.86%.
Result for O=C(O)C(F)(F)F.O=C(O)C(F)(F)F.[H][C@@]12OCCN(Cc3cc(C)on3)[C@@]1([H])CC[C@H]2OCc1cccc(C)n1 was A: 5.788%; C: 12.77%; D: 11.57%.
Result for NC(=O)Cn1ccnc1C1CCCN(Cc2ccccc2OC(F)F)C1 (stereo unspecified) was A: 3.546%; B: -4.184%; C: -12.76%; D: -23.01%.
Result for CC1(C)CNC(=O)CN(C(=O)COc2ccccc2)C1 was A: -6.449%; B: 1.634%; C: 19.86%; D: -6.559%.
Result for COCC(=O)N1CCCCC1c1nc(C)c2c(n1)N(CC1CC1)C(=O)C2 (stereo unspecified) was A: 5.98%; B: -32.47%; C: 0.0295%; D: -7.139%.
Result for Cc1ccc2c(c1)OC(C)CN2C(=O)Cc1ccc(C)nc1 (stereo unspecified) was A: 4.813%; B: -8.342%; C: -18.9%; D: 8.448%.
Result for Cn1ncc2c1CCCN(C(=O)C1CCCC1)C2 was A: 4.622%; B: 31.34%; C: 21.64%; D: -18.26%.
Result for COc1ccc(CN2CCCn3cnc(COC(C)C)c3C2)cc1 was B: -3.441%.
Result for CN(C(=O)CCc1ccsc1)S(C)(=O)=O was A: 8.253%; B: -17.33%; C: 8.756%; D: -37.93%.
Result for Cc1cc(C2CCCN2Cc2ccn(C)c(=O)c2)no1 (stereo unspecified) was A: -9.549%; B: 0.9202%; C: 21.42%; D: -13.83%.
Result for Cc1nc(C)c(C(=O)N2CCc3nc4c(C)csc4c(=O)n3CC2)s1.Cl was A: 6.291%; C: 11.24% & 4.644%; D: -52.81%.
Result for O=C(NCc1ccccc1)N1C[C@H]2CCN[C@H]2C1 was B: 18.42%.
Result for Cc1ccc(CNCc2nccn2C)c(OC(C)(C)C)c1 was A: -3.276%; B: -4.007%; C: 14.29%; D: -9.651%.
Result for Cc1nc(CN2CC3(CCN(c4cnccn4)C3)CC2=O)cs1.O=C(O)C(F)(F)F (stereo unspecified) was A: 13.04%; C: 13.12%; D: -45.32%.
Result for Cn1nc(C(=O)NCc2ccc(Cl)cc2)c2c1CCS(=O)(=O)C2 was A: 6.801%; B: -6.652%; C: -25.9%; D: -28.21%.
Result for CC(C)c1cc(C(=O)N2CC[C@@H](c3ccc4c(c3)OCO4)[C@H](O)C2)[nH]n1 was A: 3.853%; B: -4.073%; C: 26.43%; D: -7.66%.
Result for CC(=O)N1CCC(C(=O)N2CCC(=Cc3cccc(F)c3)CC2)CC1 was A: 11.19%; B: -11.84%; C: 8.344%; D: -29.14%.
Result for CC(C)COC[C@@H]1CC[C@H]2[C@H](CCN2C(=O)c2ccncc2F)O1 was B: -12.79%.
Result for O=C(c1ccncc1)N1CCC(c2nc(O)cc(-c3cccnc3)n2)C1 (stereo unspecified) was A: -0.9429%; B: 10.21%; C: -2.25%; D: 16.29%.
Result for COc1cccc(OCC2CCCN(C(=O)Cc3cccc(O)c3)C2)c1 (stereo unspecified) was A: 9.592%; B: -25.01%; C: 31.57%; D: 31.24%.
Result for O=C(O)C(F)(F)F.O=C(O)C(F)(F)F.O=C(O)C(F)(F)F.[H][C@@]12OCCN(CCN(CC)CC)[C@@]1([H])CC[C@@H]2OCc1ccncc1 was A: 3.941%; C: 30.58%; D: 7.676%.
Result for CN(C)CCN1CC2(CCCN(c3ccc(Cl)cn3)C2)CCC1=O (stereo unspecified) was A: -1.876%; B: -8.292%; C: -10.72%; D: -22.46%.
Result for CC[C@@]1(O)CCN(C(=O)c2ccc(-n3cnnc3)cc2)C[C@H]1O was A: 24.11%; B: -22.25%; C: 22.08%; D: -32.68%.
Result for CCCc1nnc2sc(-c3cc(C(C)C)n[nH]3)nn12 was A: 13.79%; B: -2.817%; C: 30.42%; D: -49.54%.
Result for CN(Cc1nnc(C2CC2)o1)CC1CCCN1c1cccnn1 (stereo unspecified) was A: 0.6734%; B: 1.071%; C: 20.85%; D: 5.219%.

3 of the entries, repeated:

| SMILES | A | B | C | D |
|---|---|---|---|---|
| `Cn1nc(C(=O)NCc2ccc(Cl)cc2)c2c1CCS(=O)(=O)C2` | 6.801 | -6.652 | -25.9 | -28.21 |
| `CN(Cc1nnc(C2CC2)o1)CC1CCCN1c1cccnn1` (stereo unspecified) | 0.6734 | 1.071 | 20.85 | 5.219 |
| `CN(C(=O)CCc1ccsc1)S(C)(=O)=O` | 8.253 | -17.33 | 8.756 | -37.93 |